Taken from: PubChem BioAssay AID504764 (Drosophila RNAi Screening Center, 2011)

Test: 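Knock-downs that raise or lower a Notch target reporter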 (primary screen)
System: Drosophila Kc167 cells
Knock-down reagent: long dsRNA against Drosophila genes
Timing: about 5 days (4 days dsRNA, then 24 h after transfection)
Treatment: transfection of constitutively active membrane-tethered Notch lacking the extracellular domain, read 24 h later
Measurement: 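Light from a Notch-responsive E(spl)m3 luciferase reporter under active Notch, with control-promoter and no-Notch reporter wells to normalise; raw counts from paired wells a and b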
Direction: induced reporter light, run 1, well a and induced reporter light, run 1, well b: higher = more light from the Notch target reporter with active Notch; control promoter light, run 1, well a and control promoter light, run 1, well b: higher = more light from the viral control promoter (cell number, transfection, viability); uninduced reporter light, run 1, well a: higher = more light from the Notch target reporter without active Notch
Active means: 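Hit if the duplicate-averaged log2 ratio of induced to control-promoter light gives a plate-wise z beyond ±2, or induced to uninduced beyond ±1.8; weak-control or discordant-duplicate wells dropped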
Calls: active = modifier hit (raised or lowered Notch signal); inactive = not a hit
The deposit covers about 22,000 reagents; shown is an unselected part of those with a known target gene and a result. Over the whole deposit, 403 (1.9%) are marked active. 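Unnormalised raw counts per well; ratio z-scores behind the hit calls and whether each hit raises or lowers signal are not deposited.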 Names joined by + are all predicted targets of the reagent. The record does not give: the amount of reagent.

| gene | DRSC id | induced reporter light, run 1, well a | induced reporter light, run 1, well b | control promoter light, run 1, well a | control promoter light, run 1, well b | uninduced reporter light, run 1, well a | Call |
| --- | --- | --- | --- | --- | --- | --- | --- |
| CG14480 (GeneID 36988) | DRSC06452 | 97400 | 1.07e5 | 1.28e5 | 1.47e5 | 10670 | inactive |
| CG10339 (GeneID 37854) | DRSC04065 | 1.18e5 | 1.16e5 | 1.46e5 | 1.26e5 | 9215 | inactive |
| pdgy (GeneID 32426) | DRSC19064 | 99955 | 1.10e5 | 96500 | 1.08e5 | 9240 | inactive |
| pdgy (GeneID 32426) | DRSC19341 | 2.67e5 | 2.32e5 | 3.06e5 | 2.25e5 | 13325 | inactive |
| Sry-alpha (GeneID 43571) | DRSC16867 | 1.60e5 | 1.41e5 | 1.98e5 | 1.91e5 | 12435 | inactive |
| CG4250 (GeneID 37599) | DRSC04455 | 2.36e5 | 2.25e5 | 1.90e5 | 1.91e5 | 18480 | inactive |
| CG7179 (GeneID 34059) | DRSC03020 | 77325 | 80685 | 69940 | 82395 | 17165 | inactive |
| CG9886 (GeneID 33431) | DRSC00732 | 1.39e5 | 1.27e5 | 1.62e5 | 1.64e5 | 14675 | inactive |
| CG5390 (GeneID 34383) | DRSC02855 | 88970 | 1.26e5 | 59280 | 72930 | 16460 | inactive |
| Grp170 (GeneID 31215) | DRSC18524 | 1.89e5 | 1.84e5 | 2.48e5 | 2.85e5 | 14075 | inactive |
| CG31674 (GeneID 318878) | DRSC03208 | 38270 | 34565 | 49070 | 36890 | 4595 | inactive |
| CG12576 (GeneID 33135) | DRSC20621 | 92015 | 85060 | 1.47e5 | 1.47e5 | 9555 | active |
| Nap1 (GeneID 37798) | DRSC04626 | 2.00e5 | 1.36e5 | 1.22e5 | 1.76e5 | 14350 | inactive |
| CG18746 (GeneID 59142) | DRSC15383 | 40605 | 67760 | 82580 | 58675 | 5840 | inactive |
| Fkbp59 (GeneID 47762) | DRSC03323 | 1.31e5 | 1.60e5 | 78350 | 1.10e5 | 17738 | inactive |
| CG12159 (GeneID 35741) | DRSC06114 | 1.59e5 | 1.44e5 | 2.34e5 | 1.94e5 | 14215 | inactive |
| CG42709 (GeneID 39453) | DRSC10277 | 1.26e5 | 83580 | 64995 | 45350 | 7995 | inactive |
| nSMase (GeneID 38396) | DRSC08237 | 98670 | 1.08e5 | 90185 | 31580 | 10120 | inactive |
| mAChR-B (GeneID 40955) | DRSC16345 | 1.14e5 | 1.40e5 | 75695 | 69340 | 7068 | inactive |
| Grl36b (GeneID 318940) | DRSC01627 | 64965 | 69965 | 62460 | 59500 | 5660 | inactive |
| CG31681 (GeneID 318882) | DRSC00107 | 92905 | 87430 | 1.24e5 | 1.10e5 | 6745 | inactive |
| l(3)05822 (GeneID 47260) | DRSC16202 | 1.50e5 | 1.54e5 | 1.97e5 | 2.08e5 | 14745 | inactive |
| Suv3 (GeneID 40543) | DRSC12335 | 74965 | 1.16e5 | 50105 | 61510 | 6400 | inactive |
| CG6420 (GeneID 43218) | DRSC16035 | 11350 | 9160 | 13890 | 10600 | 710 | inactive |
| CG12935 (GeneID 36134) | DRSC06248 | 1.43e5 | 1.39e5 | 1.48e5 | 1.29e5 | 12890 | inactive |
| snoRNA:Me28S-C3227a + snoRNA:Me18S-A1061 + snoRNA:Me28S-C3227b + 7 more | DRSC05497 | 1.28e5 | 1.82e5 | 2.70e5 | 2.50e5 | 15832 | inactive |
| lectin-33A (GeneID 53516) | DRSC02529 | 1.04e5 | 1.28e5 | 64460 | 68260 | 13650 | inactive |
| lectin-33A (GeneID 53516) | DRSC22116 | – | – | – | – | – | inactive |
| NijC (GeneID 41568) | DRSC14851 | 60295 | 76735 | 76310 | 52895 | 4185 | inactive |
| CG10445 (GeneID 40938) | DRSC14247 | 1.10e5 | 79700 | 86440 | 71775 | 7830 | inactive |
| Rh7 (GeneID 39389) | DRSC10529 | 1.30e5 | 1.30e5 | 69535 | 35645 | 10940 | inactive |
| CG11629 (GeneID 35431) | DRSC03695 | 49325 | 56680 | 55425 | 45300 | 5042 | inactive |
| CG16853 (GeneID 34771) | DRSC01877 | 1.14e5 | 1.28e5 | 1.26e5 | 1.46e5 | 9535 | inactive |
| uex (GeneID 5740320) | DRSC20784 | 2.03e5 | 2.08e5 | 3.45e5 | 3.27e5 | 16280 | inactive |
| uex (GeneID 5740320) | DRSC20786 | 2.52e5 | 2.36e5 | 3.89e5 | 4.03e5 | 18850 | inactive |
| Ziz (GeneID 34030) | DRSC02506 | 1.30e5 | 1.26e5 | 1.51e5 | 1.43e5 | 7865 | inactive |
| Ziz (GeneID 34030) | DRSC02976 | 1.63e5 | 1.45e5 | 1.96e5 | 1.78e5 | 10635 | inactive |
| CG4210 (GeneID 41832) | DRSC15551 | 1.97e5 | 1.84e5 | 1.80e5 | 1.85e5 | 15780 | inactive |
| capu (GeneID 33611) | DRSC00208 | 1.10e5 | 83905 | 1.57e5 | 1.31e5 | 8985 | inactive |
| capu (GeneID 33611) | DRSC00209 | 94680 | 79775 | 1.05e5 | 1.03e5 | 8045 | inactive |
| capu (GeneID 33611) | DRSC00434 | 1.99e5 | 1.41e5 | 1.57e5 | 1.30e5 | 9785 | inactive |
| capu (GeneID 33611) | DRSC00807 | 2.20e5 | 2.38e5 | 2.25e5 | 2.07e5 | 20985 | inactive |
| CG13692 (GeneID 33216) | DRSC00361 | 92670 | 1.08e5 | 1.03e5 | 52110 | 6930 | inactive |
| PK1-R (GeneID 41713) | DRSC16577 | 2.74e5 | 2.38e5 | 1.91e5 | 1.69e5 | 19855 | inactive |
| CG34001 (GeneID 3885640) | DRSC09042 | 2.86e5 | 2.12e5 | 2.83e5 | 2.70e5 | 16545 | inactive |
| IntS12 (GeneID 43227) | DRSC15818 | 1.07e5 | 1.47e5 | 1.29e5 | 1.30e5 | 18210 | inactive |
| cbt (GeneID 33224) | DRSC00655 | 1.67e5 | 1.78e5 | 2.25e5 | 2.11e5 | 19130 | inactive |
| Gbp2 (GeneID 36937) | DRSC06069 | 92335 | 1.16e5 | 1.48e5 | 1.85e5 | 9882 | inactive |
| CG13101 (GeneID 34221) | DRSC02201 | 2.62e5 | 2.15e5 | 1.84e5 | 1.90e5 | 16470 | inactive |
| CheB93a (GeneID 42540) | DRSC15044 | 2.02e5 | 1.87e5 | 1.78e5 | 1.84e5 | 12660 | inactive |

Ordered by “control promoter light, run 1, well b” (descending): 8 of the entries above
| gene | DRSC id | induced reporter light, run 1, well a | induced reporter light, run 1, well b | control promoter light, run 1, well a | control promoter light, run 1, well b | uninduced reporter light, run 1, well a | Call |
| --- | --- | --- | --- | --- | --- | --- | --- |
| Grp170 (GeneID 31215) | DRSC18524 | 1.89e5 | 1.84e5 | 2.48e5 | 2.85e5 | 14075 | inactive |
| pdgy (GeneID 32426) | DRSC19341 | 2.67e5 | 2.32e5 | 3.06e5 | 2.25e5 | 13325 | inactive |
| Sry-alpha (GeneID 43571) | DRSC16867 | 1.60e5 | 1.41e5 | 1.98e5 | 1.91e5 | 12435 | inactive |
| CG4250 (GeneID 37599) | DRSC04455 | 2.36e5 | 2.25e5 | 1.90e5 | 1.91e5 | 18480 | inactive |
| CG9886 (GeneID 33431) | DRSC00732 | 1.39e5 | 1.27e5 | 1.62e5 | 1.64e5 | 14675 | inactive |
| CG7179 (GeneID 34059) | DRSC03020 | 77325 | 80685 | 69940 | 82395 | 17165 | inactive |
| CG5390 (GeneID 34383) | DRSC02855 | 88970 | 1.26e5 | 59280 | 72930 | 16460 | inactive |
| CG31674 (GeneID 318878) | DRSC03208 | 38270 | 34565 | 49070 | 36890 | 4595 | inactive |
